One assay has as its target T1, HA-tagged RAD51C (UniProt O43502).
T1 sequence: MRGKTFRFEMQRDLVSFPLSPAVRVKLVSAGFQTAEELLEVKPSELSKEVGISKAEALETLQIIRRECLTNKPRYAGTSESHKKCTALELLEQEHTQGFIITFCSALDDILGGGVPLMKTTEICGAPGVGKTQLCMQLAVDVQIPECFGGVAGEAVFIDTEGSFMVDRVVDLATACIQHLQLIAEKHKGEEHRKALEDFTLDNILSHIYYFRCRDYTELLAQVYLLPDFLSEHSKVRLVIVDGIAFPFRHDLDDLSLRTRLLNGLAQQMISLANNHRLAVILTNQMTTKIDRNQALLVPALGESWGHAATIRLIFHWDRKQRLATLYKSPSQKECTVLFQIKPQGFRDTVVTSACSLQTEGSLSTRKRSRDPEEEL
In words: co-IP; HEK293T cells co-transfected with Flag-tagged HBV protein plasmids and HA-RAD51C, 48 h; whole-cell lysate (250 mM Tris-HCl pH 7.4, 150 mM NaCl, 1 mM EDTA, 1% Triton X-100, 10% glycerol); antibody overnight at 4 °C, protein G magnetic beads; western blot; forward and reverse pull-down.

Amino acid sequences for entries named in this document (tags omitted).
UniProt P03165: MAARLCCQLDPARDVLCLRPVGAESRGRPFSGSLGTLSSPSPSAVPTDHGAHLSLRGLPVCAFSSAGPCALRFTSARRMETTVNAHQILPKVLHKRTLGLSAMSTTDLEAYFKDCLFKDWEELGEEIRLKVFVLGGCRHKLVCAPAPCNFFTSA

The target in assay [1] is Flag-tagged HBV X protein (HBX) (hepatitis B virus) (UniProt P03165). Described as above.

We go through two molecules from PMC10831117.

Results are given in words; binding and its absence hold for the method and conditions named. In cells and extracts the contact can be indirect. Some binding calls cover weakened binding; strength is not graded here. Tags and fused reporters may be left off the sequences shown.

For “Flag-tagged HBV X protein (HBX) (from UniProt P03165 1-154)”, in the assay with HA-tagged RAD51C, the binding result is recorded as “binds”.

B1: HA-tagged RAD51C (protein, UniProt O43502 1-376)
chain: T1 sequence
For the molecule B1, in assay [1], the binding entry was “binds”.
